This is one part of the list.
Key:
Assay in all cases: log2 fold change, soluble protein after heating vs DMSO (PISA); higher = thermal stabilisation; K562 lysate, 10 uM; active = over 0.2 and 3.5 SD of the protein, either way, in both replicates (recomputed)
[1] = compound: CS(=O)(=O)CCNCc1ccc(-c2ccc3ncnc(Nc4ccc(OCc5cccc(F)c5)c(Cl)c4)c3c2)o1 [lapatinib]
Outline: (§1)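 Thermal stability, expressed as log-two fold change relative to solvent controls, is given from duplicates. Crude K562 extract in PBS pH 7.4 with 1 mM MgCl2, at 1 mg/mL protein, was treated with 10 μM compound for 30 min and heated in aliquots for 3 min across 48°C-58°C. After pooling, adjustment to 0.5% NP-40 at 4°C and centrifugation at 21,000xg for 90 min, supernatant protein was measured by TMTpro 16plex LC-MS/MS with channel sums equalised.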

Sequences of proteins named here, by UniProt entry; tags and fusion partners are left off. A change or cut given only in a name is not applied to a line headed by its entry.
UniProt O75116: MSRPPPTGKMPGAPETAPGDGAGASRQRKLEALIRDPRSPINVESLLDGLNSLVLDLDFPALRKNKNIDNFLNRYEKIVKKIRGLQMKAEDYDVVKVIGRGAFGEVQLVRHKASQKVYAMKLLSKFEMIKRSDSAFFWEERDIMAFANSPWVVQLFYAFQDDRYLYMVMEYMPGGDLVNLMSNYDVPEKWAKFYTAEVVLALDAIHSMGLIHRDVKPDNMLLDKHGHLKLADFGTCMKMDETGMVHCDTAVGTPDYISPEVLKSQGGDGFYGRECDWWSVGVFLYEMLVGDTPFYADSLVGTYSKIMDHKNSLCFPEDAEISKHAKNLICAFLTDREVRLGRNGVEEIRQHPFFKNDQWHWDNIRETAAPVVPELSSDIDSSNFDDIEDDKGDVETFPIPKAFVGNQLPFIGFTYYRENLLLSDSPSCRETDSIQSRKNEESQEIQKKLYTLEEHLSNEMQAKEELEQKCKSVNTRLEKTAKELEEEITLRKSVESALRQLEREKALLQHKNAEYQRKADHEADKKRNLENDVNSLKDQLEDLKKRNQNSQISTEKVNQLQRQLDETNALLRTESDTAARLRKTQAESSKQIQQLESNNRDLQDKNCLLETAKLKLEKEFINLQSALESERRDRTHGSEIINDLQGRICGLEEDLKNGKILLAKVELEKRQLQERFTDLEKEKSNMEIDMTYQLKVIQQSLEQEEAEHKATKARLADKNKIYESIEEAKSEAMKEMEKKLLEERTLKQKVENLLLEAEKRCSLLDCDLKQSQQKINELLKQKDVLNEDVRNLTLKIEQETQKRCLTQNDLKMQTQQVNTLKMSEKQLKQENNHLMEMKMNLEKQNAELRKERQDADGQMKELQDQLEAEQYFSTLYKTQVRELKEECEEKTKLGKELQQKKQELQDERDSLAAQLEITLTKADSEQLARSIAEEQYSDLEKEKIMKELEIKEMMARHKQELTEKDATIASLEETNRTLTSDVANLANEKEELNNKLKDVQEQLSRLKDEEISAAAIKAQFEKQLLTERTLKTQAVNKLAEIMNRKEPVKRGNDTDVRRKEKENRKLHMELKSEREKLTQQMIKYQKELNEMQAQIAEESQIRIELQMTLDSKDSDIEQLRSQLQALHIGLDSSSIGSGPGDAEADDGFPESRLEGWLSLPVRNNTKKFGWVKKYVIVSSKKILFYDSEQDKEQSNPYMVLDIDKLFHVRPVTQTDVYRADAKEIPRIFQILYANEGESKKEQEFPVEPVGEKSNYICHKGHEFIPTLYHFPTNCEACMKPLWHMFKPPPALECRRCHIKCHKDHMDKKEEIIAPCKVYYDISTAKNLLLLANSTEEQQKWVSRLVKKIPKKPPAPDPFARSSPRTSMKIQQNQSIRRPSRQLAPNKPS
UniProt P35244: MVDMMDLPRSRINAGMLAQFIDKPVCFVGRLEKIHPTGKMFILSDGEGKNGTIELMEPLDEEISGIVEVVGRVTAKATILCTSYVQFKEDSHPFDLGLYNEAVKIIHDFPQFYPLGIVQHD
UniProt Q9BRS2: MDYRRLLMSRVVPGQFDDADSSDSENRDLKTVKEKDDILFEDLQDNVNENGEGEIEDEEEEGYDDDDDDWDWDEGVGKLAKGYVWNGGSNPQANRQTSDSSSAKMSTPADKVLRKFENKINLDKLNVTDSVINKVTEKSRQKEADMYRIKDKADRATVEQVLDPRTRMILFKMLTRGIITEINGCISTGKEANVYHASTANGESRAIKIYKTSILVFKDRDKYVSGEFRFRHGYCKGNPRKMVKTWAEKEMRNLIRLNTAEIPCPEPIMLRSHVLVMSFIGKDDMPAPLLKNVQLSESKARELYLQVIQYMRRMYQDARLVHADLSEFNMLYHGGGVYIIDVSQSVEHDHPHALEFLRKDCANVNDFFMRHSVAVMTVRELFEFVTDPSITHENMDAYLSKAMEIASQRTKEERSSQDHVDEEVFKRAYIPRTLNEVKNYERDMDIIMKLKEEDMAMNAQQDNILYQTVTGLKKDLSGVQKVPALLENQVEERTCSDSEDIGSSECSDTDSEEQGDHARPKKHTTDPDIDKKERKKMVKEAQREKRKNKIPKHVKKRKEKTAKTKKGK
UniProt P15927: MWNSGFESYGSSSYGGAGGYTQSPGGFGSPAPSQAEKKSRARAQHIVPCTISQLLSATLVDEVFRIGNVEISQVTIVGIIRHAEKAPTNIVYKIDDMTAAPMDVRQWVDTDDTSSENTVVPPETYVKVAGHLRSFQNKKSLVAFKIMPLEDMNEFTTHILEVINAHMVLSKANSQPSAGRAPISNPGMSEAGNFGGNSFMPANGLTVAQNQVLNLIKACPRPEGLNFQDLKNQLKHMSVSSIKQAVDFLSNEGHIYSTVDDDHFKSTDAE
UniProt Q96EP0: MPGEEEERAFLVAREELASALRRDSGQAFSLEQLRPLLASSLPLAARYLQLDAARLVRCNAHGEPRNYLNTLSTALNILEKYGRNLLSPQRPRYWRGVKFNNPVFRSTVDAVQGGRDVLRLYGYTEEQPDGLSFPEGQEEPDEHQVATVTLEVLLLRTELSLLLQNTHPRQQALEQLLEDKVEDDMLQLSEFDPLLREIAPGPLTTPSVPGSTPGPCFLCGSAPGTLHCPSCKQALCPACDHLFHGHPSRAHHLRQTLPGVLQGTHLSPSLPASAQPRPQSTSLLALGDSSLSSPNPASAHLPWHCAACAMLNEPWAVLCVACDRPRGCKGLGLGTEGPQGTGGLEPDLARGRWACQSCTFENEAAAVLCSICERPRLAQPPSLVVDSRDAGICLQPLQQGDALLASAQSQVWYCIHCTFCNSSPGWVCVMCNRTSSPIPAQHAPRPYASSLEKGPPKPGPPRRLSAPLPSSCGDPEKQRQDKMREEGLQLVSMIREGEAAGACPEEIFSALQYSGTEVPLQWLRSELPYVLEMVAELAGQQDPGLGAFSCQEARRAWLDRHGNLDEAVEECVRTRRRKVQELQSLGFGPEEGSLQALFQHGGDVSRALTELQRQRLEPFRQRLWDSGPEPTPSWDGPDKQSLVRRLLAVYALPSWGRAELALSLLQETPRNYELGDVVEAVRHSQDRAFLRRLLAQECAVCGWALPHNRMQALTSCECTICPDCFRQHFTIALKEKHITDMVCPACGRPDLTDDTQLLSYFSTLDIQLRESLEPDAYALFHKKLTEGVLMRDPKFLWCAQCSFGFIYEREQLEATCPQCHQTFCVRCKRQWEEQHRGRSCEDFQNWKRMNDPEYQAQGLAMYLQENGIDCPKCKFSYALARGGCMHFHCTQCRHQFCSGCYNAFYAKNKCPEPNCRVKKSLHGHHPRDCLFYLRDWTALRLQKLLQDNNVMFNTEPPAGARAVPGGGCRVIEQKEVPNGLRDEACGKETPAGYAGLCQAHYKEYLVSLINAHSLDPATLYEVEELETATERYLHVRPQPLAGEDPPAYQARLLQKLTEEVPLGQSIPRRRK
UniProt Q8IUF8: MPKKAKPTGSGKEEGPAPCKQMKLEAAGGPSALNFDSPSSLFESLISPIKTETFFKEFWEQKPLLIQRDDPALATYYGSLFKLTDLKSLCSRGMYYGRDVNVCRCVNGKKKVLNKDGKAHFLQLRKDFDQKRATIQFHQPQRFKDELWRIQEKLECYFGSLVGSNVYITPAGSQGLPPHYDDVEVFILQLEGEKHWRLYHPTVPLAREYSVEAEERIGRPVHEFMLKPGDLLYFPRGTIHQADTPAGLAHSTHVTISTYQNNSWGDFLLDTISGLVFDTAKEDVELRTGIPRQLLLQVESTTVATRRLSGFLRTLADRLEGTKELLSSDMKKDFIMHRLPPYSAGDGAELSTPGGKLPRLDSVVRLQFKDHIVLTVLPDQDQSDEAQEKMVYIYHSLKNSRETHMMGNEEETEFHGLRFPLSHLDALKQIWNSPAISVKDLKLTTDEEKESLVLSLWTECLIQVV
UniProt Q96A37: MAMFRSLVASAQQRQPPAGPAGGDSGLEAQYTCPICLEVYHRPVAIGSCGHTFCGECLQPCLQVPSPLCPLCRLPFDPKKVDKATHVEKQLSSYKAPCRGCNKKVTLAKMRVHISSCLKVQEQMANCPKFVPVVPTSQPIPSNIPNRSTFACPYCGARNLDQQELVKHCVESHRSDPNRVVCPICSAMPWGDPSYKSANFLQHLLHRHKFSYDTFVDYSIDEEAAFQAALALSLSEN
UniProt Q8IXW5, whole entry, looked up: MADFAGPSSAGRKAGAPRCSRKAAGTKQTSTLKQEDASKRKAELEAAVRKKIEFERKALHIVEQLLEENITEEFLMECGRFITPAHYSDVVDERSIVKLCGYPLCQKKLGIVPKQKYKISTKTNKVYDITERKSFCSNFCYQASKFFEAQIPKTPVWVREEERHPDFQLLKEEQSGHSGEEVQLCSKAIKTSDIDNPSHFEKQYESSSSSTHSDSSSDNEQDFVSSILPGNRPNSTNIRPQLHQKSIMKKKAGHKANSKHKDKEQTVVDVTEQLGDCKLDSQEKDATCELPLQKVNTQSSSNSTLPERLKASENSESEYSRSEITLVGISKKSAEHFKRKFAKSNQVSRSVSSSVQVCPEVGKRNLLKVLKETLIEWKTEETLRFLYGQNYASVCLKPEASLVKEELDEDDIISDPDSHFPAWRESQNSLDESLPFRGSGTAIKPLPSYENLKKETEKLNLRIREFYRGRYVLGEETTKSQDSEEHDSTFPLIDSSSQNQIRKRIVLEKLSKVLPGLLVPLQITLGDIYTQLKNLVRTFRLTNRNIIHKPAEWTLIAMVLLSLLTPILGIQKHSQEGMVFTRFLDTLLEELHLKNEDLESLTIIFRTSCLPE
UniProt Q6R327, whole entry, looked up: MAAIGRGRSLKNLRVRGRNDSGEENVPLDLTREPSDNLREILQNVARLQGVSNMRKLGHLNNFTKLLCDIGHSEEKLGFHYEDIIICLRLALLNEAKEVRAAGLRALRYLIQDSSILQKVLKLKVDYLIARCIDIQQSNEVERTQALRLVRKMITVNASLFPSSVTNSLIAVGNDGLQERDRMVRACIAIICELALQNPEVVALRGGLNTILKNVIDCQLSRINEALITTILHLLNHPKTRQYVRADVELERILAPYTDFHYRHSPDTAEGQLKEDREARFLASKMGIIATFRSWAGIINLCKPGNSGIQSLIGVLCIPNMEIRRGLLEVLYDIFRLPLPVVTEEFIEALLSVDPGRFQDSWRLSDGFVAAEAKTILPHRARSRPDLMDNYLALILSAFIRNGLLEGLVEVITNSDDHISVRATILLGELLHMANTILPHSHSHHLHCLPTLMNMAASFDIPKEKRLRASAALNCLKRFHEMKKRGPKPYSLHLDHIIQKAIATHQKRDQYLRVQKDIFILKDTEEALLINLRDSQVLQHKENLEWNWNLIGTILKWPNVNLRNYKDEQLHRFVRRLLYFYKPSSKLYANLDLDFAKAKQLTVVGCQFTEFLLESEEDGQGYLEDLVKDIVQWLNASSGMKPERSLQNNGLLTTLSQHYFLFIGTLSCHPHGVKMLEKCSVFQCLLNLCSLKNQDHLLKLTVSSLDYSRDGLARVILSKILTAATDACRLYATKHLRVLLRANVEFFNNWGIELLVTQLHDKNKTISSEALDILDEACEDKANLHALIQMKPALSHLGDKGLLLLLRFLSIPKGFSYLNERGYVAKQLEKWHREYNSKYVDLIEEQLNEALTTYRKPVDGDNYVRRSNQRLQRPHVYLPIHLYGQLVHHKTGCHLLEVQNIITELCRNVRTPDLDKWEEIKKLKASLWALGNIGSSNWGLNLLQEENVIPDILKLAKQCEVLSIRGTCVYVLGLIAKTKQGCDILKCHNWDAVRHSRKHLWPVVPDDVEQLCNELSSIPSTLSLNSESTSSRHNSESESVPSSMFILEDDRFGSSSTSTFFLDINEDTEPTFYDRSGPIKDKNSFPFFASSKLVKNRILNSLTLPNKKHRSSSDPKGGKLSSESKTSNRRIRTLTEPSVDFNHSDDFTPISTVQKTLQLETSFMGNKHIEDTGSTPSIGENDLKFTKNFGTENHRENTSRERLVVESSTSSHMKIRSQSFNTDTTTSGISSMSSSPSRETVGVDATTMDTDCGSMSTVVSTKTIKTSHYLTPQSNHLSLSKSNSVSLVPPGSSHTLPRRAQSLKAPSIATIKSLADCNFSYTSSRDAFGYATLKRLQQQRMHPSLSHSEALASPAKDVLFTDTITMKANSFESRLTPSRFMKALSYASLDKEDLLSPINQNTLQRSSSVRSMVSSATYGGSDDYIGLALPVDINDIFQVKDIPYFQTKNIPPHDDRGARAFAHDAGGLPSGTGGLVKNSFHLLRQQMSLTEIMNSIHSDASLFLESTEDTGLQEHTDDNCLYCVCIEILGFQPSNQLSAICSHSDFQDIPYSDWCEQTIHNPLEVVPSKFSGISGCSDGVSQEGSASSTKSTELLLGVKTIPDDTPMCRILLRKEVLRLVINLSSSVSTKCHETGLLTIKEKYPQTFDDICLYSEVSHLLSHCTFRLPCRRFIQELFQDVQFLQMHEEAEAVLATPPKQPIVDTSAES

[2] = compound: CS(=O)(=O)N1CCN(Cc2cc3nc(-c4cccc5[nH]ncc45)nc(N4CCOCC4)c3s2)CC1 [pictilisib]
Outline: as §1

[3] = compound: C[C@@H](Oc1cc(-c2cnn(C3CCNCC3)c2)cnc1N)c1c(Cl)ccc(F)c1Cl [crizotinib]
Outline: as §1

[4] = compound: C[C@H](C1=CC=C(C=C1)C(=O)NC2=C3C=CNC3=NC=C2)N
Outline: as §1

[5] = compound: C[C@H](Nc1ncnc2nc[nH]c12)c1cc2cccc(Cl)c2c(=O)n1-c1ccccc1 [duvelisib]
Outline: as §1

[6] = compound: Cc1cc(Nc2cc(CN3CCOCC3)c3nc(C)c(Cc4ccc(Cl)cc4F)n3n2)n[nH]1 [gandotinib]
Outline: as §1

[7] = compound: Cc1cc(Nc2cc(N3CCN(C)CC3)nc(Sc3ccc(NC(=O)C4CC4)cc3)n2)n[nH]1 [tozasertib]
Outline: as §1

[8] = compound: Cc1ccc(-n2nc(C(C)(C)C)cc2NC(=O)Nc2ccc(OCCN3CCOCC3)c3ccccc23)cc1 [doramapimod]
Outline: as §1

[9] = compound: Cc1ccc(NC(=O)c2ccc(CN3CC[C@H](N(C)C)C3)c(C(F)(F)F)c2)cc1Nc1nccc(-c2cncnc2)n1 [bafetinib]
Outline: as §1

[10] = compound: Cc1cccc(CC(=O)N2CCc3c2ccc(-c2cn(C)c4ncnc(N)c24)c3F)n1
Outline: as §1

[11] = compound: Cc1cn(-c2cc(NC(=O)c3ccc(C)c(Nc4nccc(-c5cccnc5)n4)c3)cc(C(F)(F)F)c2)cn1 [nilotinib]
Outline: as §1

[12] = compound: Cc1nc(Nc2n[nH]c3c2CN(C(=O)N[C@H](CN(C)C)c2ccccc2)C3(C)C)c2sccc2n1
Outline: as §1

[13] = compound: Cc1nc(Nc2ncc(C(=O)Nc3c(C)cccc3Cl)s2)cc(N2CCN(CCO)CC2)n1 [dasatinib]
Outline: as §1

[14] = compound: Cc1ncc(-c2ccnc(Nc3ccc(S(C)(=O)=O)cc3)n2)n1C(C)C
Outline: as §1

[15] = compound: Cn1cc(-c2ccc3c(c2)CCN3C(=O)Cc2cccc(C(F)(F)F)c2)c2c(N)ncnc21
Outline: as §1

[16] = compound: Cn1cc(CNCC2CCN(c3ncc(C(=O)NO)cn3)CC2)c2ccccc21 [quisinostat]
Outline: as §1

[17] = compound: Cn1cncc1[C@@](N)(c1ccc(Cl)cc1)c1ccc2c(c1)c(-c1cccc(Cl)c1)cc(=O)n2C [tipifarnib]
Outline: as §1

[18] = compound: NC(=O)Nc1cc(-c2cccc(F)c2)sc1C(=O)N[C@H]1CCCNC1
Outline: as §1

[19] = compound: NC(=O)c1cnc(N[C@@H]2CCCC[C@@H]2N)nc1Nc1cccc(-n2nccn2)c1
Outline: as §1

[20] = compound: NC1(c2ccc(-c3nc4ccn5c(=O)[nH]nc5c4cc3-c3ccccc3)cc2)CCC1
Outline: as §1

Target	log2 fold change [1]	log2 fold change [2]	log2 fold change [3]	log2 fold change [4]	log2 fold change [5]	log2 fold change [6]	log2 fold change [7]	log2 fold change [8]	log2 fold change [9]	log2 fold change [10]	log2 fold change [11]	log2 fold change [12]	log2 fold change [13]	log2 fold change [14]	log2 fold change [15]	log2 fold change [16]	log2 fold change [17]	log2 fold change [18]	log2 fold change [19]	log2 fold change [20]
ROCK2 (UniProt O75116)	inactive: -0.012	inactive: -0.013	inactive: 0.04	inactive: 0.22	inactive: 0	inactive: -0.079	inactive: -0.026	inactive: -0.004	inactive: -0.044	inactive: 0.016	inactive: -0.009	inactive: 0.035	inactive: 0.015	inactive: 0.02	inactive: 0.039	inactive: -0.012	inactive: -0.014	inactive: 0.137	inactive: 0.052	inactive: 0.001
RPL10A (UniProt P62906)	inactive: -0.037	inactive: 0.003	inactive: 0.002	inactive: 0.096	inactive: 0.007	inactive: -0.028	inactive: -0.015	inactive: -0.021	inactive: -0.011	inactive: -0.033	inactive: 0.024	inactive: -0.025	inactive: 0.02	inactive: -0.014	inactive: 0.012	inactive: 0.004	inactive: 0.014	inactive: 0.012	inactive: -0.02	inactive: 0.025
RPL34 (UniProt P49207)	inactive: -0.055	inactive: 0.02	inactive: -0.032	inactive: -0.003	inactive: 0.021	inactive: -0.014	inactive: -0.003	inactive: 0.012	inactive: -0.021	inactive: 0.008	inactive: 0.007	inactive: -0.027	inactive: -0.019	inactive: -0.018	inactive: 0.004	inactive: -0.034	inactive: -0.014	inactive: -0.022	inactive: -0.023	inactive: -0.006
RPA3 (UniProt P35244)	inactive: 0.07	inactive: 0.016	inactive: 0.018	inactive: 0.039	inactive: 0	inactive: -0.066	inactive: -0.008	inactive: 0.016	inactive: 0.037	inactive: -0.07	inactive: 0.011	inactive: -0.006	inactive: 0.086	inactive: 0.026	inactive: -0.009	inactive: 0.001	inactive: 0.04	inactive: -0.035	inactive: -0.02	inactive: -0.029
RNF213, A0A0A0MTC1	inactive: -0.012	inactive: -0.014	inactive: -0.064	inactive: -0.043	inactive: 0.008	inactive: -0.123	inactive: 0.043	inactive: 0.033	inactive: -0.066	inactive: 0.052	inactive: 0.015	inactive: -0.016	inactive: -0.027	inactive: -0.019	inactive: 0.035	inactive: -0.033	inactive: 0.001	inactive: 0.071	inactive: 0.015	inactive: -0.016
RIOK1 (UniProt Q9BRS2)	inactive: -0.044	inactive: 0.197	inactive: -0.015	active: 0.92	inactive: 0.037	inactive: -0.138	inactive: 0.008	inactive: 0.025	inactive: -0.056	inactive: -0.134	inactive: -0.018	inactive: 0.06	inactive: -0.018	inactive: 0.072	inactive: 0.008	inactive: -0.007	inactive: 0.003	inactive: -0.012	inactive: -0.033	inactive: -0.072
RPA2 isoform 3 (UniProt P15927)	inactive: 0.003	inactive: -0.008	inactive: -0.013	inactive: -0.086	inactive: 0.01	inactive: 0.078	inactive: -0.005	inactive: -0.009	inactive: -0.006	inactive: 0.045	inactive: 0.001	inactive: -0.008	inactive: 0.013	inactive: -0.008	inactive: -0.032	inactive: -0.013	inactive: 0.034	inactive: -0.017	inactive: -0.007	inactive: -0.021
RNF31 (UniProt Q96EP0)	inactive: 0.082	inactive: -0.051	inactive: -0.009	inactive: 0.014	inactive: -0.008	inactive: -0.006	inactive: 0.022	inactive: -0.034	inactive: 0.053	inactive: -0.014	inactive: -0.069	inactive: 0.01	inactive: 0.031	inactive: -0.046	inactive: 0.024	inactive: 0.018	inactive: 0.057	inactive: 0.018	inactive: 0.086	inactive: 0.006
RIOX2 (UniProt Q8IUF8)	inactive: -0.07	inactive: -0.022	inactive: -0.111	inactive: 0.105	inactive: 0.005	inactive: -0.178	inactive: -0.017	inactive: 0.003	inactive: -0.059	inactive: -0.084	inactive: 0.015	inactive: 0.004	inactive: 0.003	inactive: 0.095	inactive: -0.017	inactive: -0.065	inactive: -0.024	inactive: 0.035	inactive: -0.039	inactive: -0.067
RNF166 (UniProt Q96A37)	inactive: 0.172	inactive: 0.026	inactive: -0.071	inactive: 0.408	inactive: 0.044	inactive: -0.304	inactive: 0.062	inactive: 0.019	inactive: -0.05	inactive: 0.21	inactive: 0.111	inactive: -0.199	inactive: 0.152	inactive: 0.058	inactive: -0.258	inactive: -0.04	inactive: -0.023	inactive: -0.002	inactive: 0.035	inactive: -0.016
RPL21 (UniProt P46778)	inactive: -0.035	inactive: 0.016	inactive: -0.02	inactive: 0.009	inactive: 0.023	inactive: 0.016	inactive: -0.06	inactive: -0.034	inactive: -0.045	inactive: 0.042	inactive: 0.018	inactive: -0.037	inactive: 0.023	inactive: -0.019	inactive: -0.032	inactive: -0.033	inactive: 0.019	inactive: 0.004	inactive: 0	inactive: -0.068
RPAP2 (UniProt Q8IXW5)	inactive: 0.026	inactive: -0.005	inactive: -0.055	inactive: -0.073	inactive: 0.054	inactive: -0.017	inactive: 0.009	inactive: 0.01	inactive: -0.029	inactive: 0.06	inactive: -0.013	inactive: 0.022	inactive: -0.035	inactive: -0.002	inactive: -0.05	inactive: -0.15	inactive: -0.033	inactive: 0.004	inactive: 0.035	inactive: 0.012
RICTOR isoform 3 (UniProt Q6R327)	inactive: -0.024	inactive: -0.094	inactive: -0.086	inactive: 0.031	inactive: 0.022	inactive: -0.202	inactive: -0.011	inactive: 0.117	inactive: -0.056	inactive: -0.114	inactive: 0.04	inactive: 0.038	inactive: -0.048	inactive: -0.057	inactive: 0.034	inactive: -0.055	inactive: -0.01	inactive: 0.027	inactive: 0.067	inactive: 0.148
RPL22 (UniProt P35268)	inactive: -0.007	inactive: -0.002	inactive: -0.009	inactive: -0.069	inactive: 0.045	inactive: 0.016	inactive: -0.011	inactive: -0.002	inactive: -0.035	inactive: 0.008	inactive: 0.01	inactive: -0.056	inactive: -0.011	inactive: 0.037	inactive: -0.027	inactive: 0.074	inactive: 0.038	inactive: 0.008	inactive: -0.012	inactive: 0.028
RPL23 (UniProt P62829)	inactive: 0.017	inactive: 0.008	inactive: -0.011	inactive: -0.013	inactive: 0.028	inactive: -0.003	inactive: -0.022	inactive: -0.012	inactive: 0.015	inactive: 0.007	inactive: 0.021	inactive: -0.011	inactive: -0.025	inactive: -0.036	inactive: -0.001	inactive: 0.005	inactive: -0.001	inactive: -0.001	inactive: 0.003	inactive: -0.006

Some entries already given, reduced to log2 fold change [18]:

| Target | log2 fold change [18] |
| --- | --- |
| RNF31 (UniProt Q96EP0) | inactive: 0.018 |
| RICTOR isoform 3 (UniProt Q6R327) | inactive: 0.027 |
